No constants are given. Whether binding was seen depends on the method and setting. One block for each molecule: values may come before it.
Experiments:
[1] = target: T1, mouse MIGA2 residues 275-570, wild type (mouse) (UniProt Q8BK03); experiment: ITC; mVAPB (wild type or mutant) in the syringe, mMIGA2^275-570 or mMIGA2^pFFAT in the cell; Microcal ITC200, 25 °C, 25 mM Tris-HCl pH 7.5, 150 mM NaCl, 4 mM β-mercaptoethanol; 20 injections of 2 μl; 1:1 binding model; both purified
T1 sequence: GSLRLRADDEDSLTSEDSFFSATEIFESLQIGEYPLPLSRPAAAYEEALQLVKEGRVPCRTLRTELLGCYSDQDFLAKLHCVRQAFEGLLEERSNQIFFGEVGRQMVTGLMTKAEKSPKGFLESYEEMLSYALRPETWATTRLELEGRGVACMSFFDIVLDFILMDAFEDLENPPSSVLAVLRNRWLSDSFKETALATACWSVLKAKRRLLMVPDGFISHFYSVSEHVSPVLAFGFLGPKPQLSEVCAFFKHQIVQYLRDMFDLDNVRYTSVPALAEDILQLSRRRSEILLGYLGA

Sequences of proteins named here, by UniProt entry; tags and fusion partners are left off. Residues count along the entry.
UniProt Q9QY76, residues 1-125: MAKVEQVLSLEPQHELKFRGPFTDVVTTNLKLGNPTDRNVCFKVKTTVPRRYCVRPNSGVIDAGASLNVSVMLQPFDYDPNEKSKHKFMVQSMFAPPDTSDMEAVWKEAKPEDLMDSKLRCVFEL

[2] = target: mouse MIGA2 LD targeting domain, residues 313-570 (mouse) (UniProt Q8BK03); experiment: SEC; Superdex 200 increase 10/300 GL, 25 mM Tris-HCl pH 7.5, 150 mM NaCl, 5 mM DTT; proteins injected at 2–4 mg/ml; elution compared with molecular mass standards; both purified
[3] = target: MSP domain of mouse VAPB (residues 1-125) fused to GST (mouse (Mus musculus)) (UniProt Q9QY76); experiment: pull-down; GST-fused mVAPB on Glutathione Sepharose 4B beads; purified mMIGA2^275-570 (wild type or mutant) added, 2 h at 4 °C in buffer A (25 mM Tris-HCl pH 7.5, 150 mM NaCl, 5 mM DTT); washed with buffer A with 0.1% Triton X-100; 12% SDS-PAGE; both purified
[4] = target: MSP domain of mouse VAPB (residues 1-125) (mouse (Mus musculus)) (UniProt Q9QY76); experiment: ITC; Microcal ITC200, 25 °C, buffer C (25 mM Tris-HCl pH 7.5, 150 mM NaCl, 4 mM β-mercaptoethanol); 20 injections of 2 μl; 1:1 binding model; both purified

binding [1]: no binding
Molecule: MSP domain of mouse VAPB (residues 1-125) (from UniProt Q9QY76 1-125) (domain or fragment)

binding [2]: no binding (tested: 2–4 mg/ml)
B1: mouse MIGA2 LD targeting domain, residues 313-570 (domain or fragment, UniProt Q8BK03 313-570)
chain: SRPAAAYEEALQLVKEGRVPCRTLRTELLGCYSDQDFLAKLHCVRQAFEGLLEERSNQIFFGEVGRQMVTGLMTKAEKSPKGFLESYEEMLSYALRPETWATTRLELEGRGVACMSFFDIVLDFILMDAFEDLENPPSSVLAVLRNRWLSDSFKETALATACWSVLKAKRRLLMVPDGFISHFYSVSEHVSPVLAFGFLGPKPQLSEVCAFFKHQIVQYLRDMFDLDNVRYTSVPALAEDILQLSRRRSEILLGYLGA

binding [3]: no binding
binding [4]: no binding
B2: mouse MIGA2 residues 275-570, wild type (domain or fragment, UniProt Q8BK03 275-570)
chain: GSLRLRADDEDSLTSEDSFFSATEIFESLQIGEYPLPLSRPAAAYEEALQLVKEGRVPCRTLRTELLGCYSDQDFLAKLHCVRQAFEGLLEERSNQIFFGEVGRQMVTGLMTKAEKSPKGFLESYEEMLSYALRPETWATTRLELEGRGVACMSFFDIVLDFILMDAFEDLENPPSSVLAVLRNRWLSDSFKETALATACWSVLKAKRRLLMVPDGFISHFYSVSEHVSPVLAFGFLGPKPQLSEVCAFFKHQIVQYLRDMFDLDNVRYTSVPALAEDILQLSRRRSEILLGYLGA
